Reference: the supplement of paper PMC10849652
The other results are listed elsewhere or left out.

Sequences of proteins named here, by UniProt entry; tags and fusion partners are left off. A change or cut given only in a name is not applied to a line headed by its entry.
UniProt Q9H6S3: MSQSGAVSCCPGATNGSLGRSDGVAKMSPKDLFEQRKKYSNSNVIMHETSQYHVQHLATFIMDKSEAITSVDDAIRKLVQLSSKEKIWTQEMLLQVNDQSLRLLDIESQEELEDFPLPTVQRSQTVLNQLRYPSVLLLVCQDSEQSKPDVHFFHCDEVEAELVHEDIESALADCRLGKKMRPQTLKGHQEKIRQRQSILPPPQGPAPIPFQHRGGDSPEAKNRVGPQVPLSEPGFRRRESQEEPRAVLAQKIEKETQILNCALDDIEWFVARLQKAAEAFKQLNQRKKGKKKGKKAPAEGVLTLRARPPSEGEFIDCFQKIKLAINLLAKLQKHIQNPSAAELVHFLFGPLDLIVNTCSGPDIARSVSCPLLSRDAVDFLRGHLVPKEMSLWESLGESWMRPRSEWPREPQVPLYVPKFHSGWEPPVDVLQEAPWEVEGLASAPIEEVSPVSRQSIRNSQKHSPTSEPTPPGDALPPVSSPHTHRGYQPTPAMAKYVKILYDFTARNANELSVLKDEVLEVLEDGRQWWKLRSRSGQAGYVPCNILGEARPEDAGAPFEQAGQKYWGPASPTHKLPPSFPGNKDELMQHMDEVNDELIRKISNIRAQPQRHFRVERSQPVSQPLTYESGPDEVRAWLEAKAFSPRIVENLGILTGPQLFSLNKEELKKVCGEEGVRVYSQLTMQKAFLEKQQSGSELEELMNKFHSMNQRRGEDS
UniProt P41091, whole entry, looked up: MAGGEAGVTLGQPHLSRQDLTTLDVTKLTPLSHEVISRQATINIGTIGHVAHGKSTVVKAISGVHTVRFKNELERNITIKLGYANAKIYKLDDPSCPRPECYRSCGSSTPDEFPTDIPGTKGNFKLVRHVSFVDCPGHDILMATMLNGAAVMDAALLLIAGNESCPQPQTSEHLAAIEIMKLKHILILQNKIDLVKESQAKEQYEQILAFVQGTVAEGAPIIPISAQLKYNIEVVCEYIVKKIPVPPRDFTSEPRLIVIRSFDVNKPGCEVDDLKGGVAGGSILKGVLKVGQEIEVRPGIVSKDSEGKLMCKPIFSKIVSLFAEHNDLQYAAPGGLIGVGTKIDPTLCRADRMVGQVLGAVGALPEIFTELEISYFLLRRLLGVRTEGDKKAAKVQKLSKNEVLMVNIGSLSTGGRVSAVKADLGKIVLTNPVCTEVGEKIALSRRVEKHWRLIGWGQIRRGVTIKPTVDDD
UniProt O00303, whole entry, looked up: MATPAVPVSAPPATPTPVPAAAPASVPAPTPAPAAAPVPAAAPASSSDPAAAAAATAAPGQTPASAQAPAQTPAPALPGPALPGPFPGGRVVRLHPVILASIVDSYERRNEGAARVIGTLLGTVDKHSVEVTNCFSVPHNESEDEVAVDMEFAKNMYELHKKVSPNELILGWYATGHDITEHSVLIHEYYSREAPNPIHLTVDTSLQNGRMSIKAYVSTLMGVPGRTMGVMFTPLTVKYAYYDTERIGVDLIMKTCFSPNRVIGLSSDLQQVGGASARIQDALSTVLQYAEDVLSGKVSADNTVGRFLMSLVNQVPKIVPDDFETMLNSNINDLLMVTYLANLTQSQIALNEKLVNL
UniProt Q8TE68: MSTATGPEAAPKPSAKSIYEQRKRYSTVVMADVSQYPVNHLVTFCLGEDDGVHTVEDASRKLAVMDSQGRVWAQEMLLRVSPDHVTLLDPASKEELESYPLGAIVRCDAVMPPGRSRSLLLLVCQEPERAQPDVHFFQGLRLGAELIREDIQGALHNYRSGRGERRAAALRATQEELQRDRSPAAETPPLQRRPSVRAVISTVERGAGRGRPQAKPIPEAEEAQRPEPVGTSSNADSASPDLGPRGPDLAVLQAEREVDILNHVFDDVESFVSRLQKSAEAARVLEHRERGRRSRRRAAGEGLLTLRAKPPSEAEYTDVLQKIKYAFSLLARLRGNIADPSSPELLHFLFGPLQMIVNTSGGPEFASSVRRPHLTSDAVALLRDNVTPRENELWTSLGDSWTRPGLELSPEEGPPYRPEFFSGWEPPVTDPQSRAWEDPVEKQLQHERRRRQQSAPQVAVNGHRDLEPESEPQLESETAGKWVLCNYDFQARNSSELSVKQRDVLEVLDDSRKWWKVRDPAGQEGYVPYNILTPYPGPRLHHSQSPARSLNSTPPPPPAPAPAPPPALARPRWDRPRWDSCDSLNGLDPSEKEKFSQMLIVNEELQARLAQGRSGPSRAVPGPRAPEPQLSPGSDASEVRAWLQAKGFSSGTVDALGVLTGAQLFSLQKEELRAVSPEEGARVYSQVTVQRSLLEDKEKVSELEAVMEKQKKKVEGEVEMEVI
UniProt Q9NZJ5: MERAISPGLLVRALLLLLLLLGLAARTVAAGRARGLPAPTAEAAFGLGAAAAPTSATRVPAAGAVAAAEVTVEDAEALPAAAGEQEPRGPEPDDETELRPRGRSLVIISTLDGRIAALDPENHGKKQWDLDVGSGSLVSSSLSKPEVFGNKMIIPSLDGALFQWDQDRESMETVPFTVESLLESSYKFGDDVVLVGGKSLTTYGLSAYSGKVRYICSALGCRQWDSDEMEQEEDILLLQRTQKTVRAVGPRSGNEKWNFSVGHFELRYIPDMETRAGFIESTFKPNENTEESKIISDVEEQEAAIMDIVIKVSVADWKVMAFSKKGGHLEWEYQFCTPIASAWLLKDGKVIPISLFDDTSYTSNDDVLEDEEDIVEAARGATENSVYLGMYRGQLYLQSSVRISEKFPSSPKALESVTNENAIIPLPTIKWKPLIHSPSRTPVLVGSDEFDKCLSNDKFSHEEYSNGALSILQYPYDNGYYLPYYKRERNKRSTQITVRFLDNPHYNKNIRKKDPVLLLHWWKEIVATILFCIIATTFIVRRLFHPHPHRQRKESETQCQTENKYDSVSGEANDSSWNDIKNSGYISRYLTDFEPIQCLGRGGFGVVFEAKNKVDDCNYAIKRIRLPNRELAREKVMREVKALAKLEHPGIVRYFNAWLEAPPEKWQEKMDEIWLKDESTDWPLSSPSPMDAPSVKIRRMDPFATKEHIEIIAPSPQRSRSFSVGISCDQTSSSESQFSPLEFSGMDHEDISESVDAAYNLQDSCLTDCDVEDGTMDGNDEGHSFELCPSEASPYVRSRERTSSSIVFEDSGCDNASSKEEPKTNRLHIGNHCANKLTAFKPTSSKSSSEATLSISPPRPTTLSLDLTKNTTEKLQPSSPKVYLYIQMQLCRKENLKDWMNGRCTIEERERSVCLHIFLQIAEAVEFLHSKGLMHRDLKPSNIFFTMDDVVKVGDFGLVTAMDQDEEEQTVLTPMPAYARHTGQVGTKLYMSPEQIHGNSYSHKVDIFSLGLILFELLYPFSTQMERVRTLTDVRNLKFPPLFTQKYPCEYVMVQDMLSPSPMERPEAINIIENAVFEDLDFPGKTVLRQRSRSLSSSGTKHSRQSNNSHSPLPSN
UniProt Q9H777: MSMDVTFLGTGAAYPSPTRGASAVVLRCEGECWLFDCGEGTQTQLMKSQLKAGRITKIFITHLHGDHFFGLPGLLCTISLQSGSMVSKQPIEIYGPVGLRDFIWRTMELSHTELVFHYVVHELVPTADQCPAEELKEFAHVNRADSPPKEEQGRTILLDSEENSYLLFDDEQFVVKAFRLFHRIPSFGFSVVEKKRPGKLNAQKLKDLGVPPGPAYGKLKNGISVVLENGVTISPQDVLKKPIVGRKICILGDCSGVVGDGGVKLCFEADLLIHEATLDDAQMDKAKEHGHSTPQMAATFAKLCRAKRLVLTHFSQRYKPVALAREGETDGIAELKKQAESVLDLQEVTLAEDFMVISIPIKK
UniProt Q9UKR5: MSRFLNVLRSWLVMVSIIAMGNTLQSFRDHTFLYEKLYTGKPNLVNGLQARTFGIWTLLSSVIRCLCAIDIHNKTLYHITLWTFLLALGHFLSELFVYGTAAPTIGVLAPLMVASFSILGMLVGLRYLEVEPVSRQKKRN
UniProt Q6P179: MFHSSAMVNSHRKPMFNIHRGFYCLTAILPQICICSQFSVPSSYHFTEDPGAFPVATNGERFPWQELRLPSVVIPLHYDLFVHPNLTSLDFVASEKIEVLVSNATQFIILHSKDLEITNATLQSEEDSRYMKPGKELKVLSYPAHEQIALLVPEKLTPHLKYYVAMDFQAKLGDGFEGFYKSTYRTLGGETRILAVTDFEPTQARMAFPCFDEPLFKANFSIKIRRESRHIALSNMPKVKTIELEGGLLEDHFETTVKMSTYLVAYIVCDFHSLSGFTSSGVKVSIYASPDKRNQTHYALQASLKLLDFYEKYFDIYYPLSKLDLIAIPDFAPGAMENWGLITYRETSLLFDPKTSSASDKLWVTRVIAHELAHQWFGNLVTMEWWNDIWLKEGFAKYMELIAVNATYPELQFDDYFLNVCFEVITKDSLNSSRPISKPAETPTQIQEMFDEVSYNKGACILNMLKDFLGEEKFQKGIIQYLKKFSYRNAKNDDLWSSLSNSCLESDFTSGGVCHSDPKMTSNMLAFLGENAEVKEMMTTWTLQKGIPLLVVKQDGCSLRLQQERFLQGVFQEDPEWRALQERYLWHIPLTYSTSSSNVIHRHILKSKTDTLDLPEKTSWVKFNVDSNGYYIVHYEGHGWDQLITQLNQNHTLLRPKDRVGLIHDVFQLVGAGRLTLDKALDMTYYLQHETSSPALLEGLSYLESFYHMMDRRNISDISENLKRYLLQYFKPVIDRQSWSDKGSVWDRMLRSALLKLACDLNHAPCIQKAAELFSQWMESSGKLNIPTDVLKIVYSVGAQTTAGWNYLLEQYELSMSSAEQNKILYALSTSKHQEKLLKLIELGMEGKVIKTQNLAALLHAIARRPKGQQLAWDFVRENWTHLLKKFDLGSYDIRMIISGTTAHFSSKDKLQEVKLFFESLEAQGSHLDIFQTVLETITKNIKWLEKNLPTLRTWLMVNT
UniProt Q8N5X7: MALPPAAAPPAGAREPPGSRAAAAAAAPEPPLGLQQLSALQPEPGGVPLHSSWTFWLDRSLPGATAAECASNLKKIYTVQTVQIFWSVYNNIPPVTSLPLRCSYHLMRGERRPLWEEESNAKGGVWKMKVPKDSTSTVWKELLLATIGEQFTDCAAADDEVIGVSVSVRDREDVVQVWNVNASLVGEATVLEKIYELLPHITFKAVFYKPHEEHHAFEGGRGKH
UniProt Q9HCM4: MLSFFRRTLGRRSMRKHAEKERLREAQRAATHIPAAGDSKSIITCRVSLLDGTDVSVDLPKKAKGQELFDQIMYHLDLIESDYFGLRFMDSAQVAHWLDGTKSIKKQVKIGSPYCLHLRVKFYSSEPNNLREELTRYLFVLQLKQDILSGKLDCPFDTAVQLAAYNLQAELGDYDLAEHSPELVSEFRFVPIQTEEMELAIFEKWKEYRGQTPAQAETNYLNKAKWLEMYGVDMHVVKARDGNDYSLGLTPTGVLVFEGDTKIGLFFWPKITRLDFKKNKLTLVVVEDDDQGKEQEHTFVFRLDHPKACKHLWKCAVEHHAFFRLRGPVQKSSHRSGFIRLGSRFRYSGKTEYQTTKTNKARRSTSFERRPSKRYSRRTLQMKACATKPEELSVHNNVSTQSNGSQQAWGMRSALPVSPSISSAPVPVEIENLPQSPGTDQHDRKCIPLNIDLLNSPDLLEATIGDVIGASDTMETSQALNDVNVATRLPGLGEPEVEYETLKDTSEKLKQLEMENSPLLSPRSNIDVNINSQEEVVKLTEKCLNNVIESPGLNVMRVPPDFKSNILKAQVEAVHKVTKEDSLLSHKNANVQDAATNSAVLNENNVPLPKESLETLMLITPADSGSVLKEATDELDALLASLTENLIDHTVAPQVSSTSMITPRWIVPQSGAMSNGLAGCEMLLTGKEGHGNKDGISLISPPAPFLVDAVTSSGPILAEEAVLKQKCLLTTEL
UniProt Q9UI10, whole entry, looked up: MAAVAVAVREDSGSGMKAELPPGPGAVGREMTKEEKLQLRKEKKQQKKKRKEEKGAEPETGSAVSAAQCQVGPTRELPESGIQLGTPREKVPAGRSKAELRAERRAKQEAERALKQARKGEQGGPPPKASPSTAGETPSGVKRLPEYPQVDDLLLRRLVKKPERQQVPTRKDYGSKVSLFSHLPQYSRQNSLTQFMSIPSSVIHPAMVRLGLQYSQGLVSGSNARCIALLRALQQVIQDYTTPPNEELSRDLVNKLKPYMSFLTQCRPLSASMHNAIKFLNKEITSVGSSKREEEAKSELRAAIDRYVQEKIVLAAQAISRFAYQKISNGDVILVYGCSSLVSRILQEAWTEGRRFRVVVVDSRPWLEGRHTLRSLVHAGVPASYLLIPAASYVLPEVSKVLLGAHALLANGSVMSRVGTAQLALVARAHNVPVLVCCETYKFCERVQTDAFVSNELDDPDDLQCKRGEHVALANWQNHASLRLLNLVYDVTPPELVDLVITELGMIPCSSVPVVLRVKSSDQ

Experiments:
Test in all cases: log2 fold change, soluble protein after heating vs DMSO (PISA); higher = thermal stabilisation; K562 lysate, 10 uM; active = over 0.2 and 3.5 SD of the protein, either way, in both replicates (recomputed)
alvocidib = compound: CN1CC[C@H](c2c(O)cc(O)c3c(=O)cc(-c4ccccc4Cl)oc23)[C@H](O)C1 [alvocidib]
In short: (§1)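 Thermal stability, expressed as log-two fold change relative to solvent controls, is given from duplicates. Crude K562 extract in PBS pH 7.4 with 1 mM MgCl2, at 1 mg/mL protein, was treated with 10 μM compound for 30 min and heated in aliquots for 3 min across 48°C-58°C. After pooling, adjustment to 0.5% NP-40 at 4°C and centrifugation at 21,000xg for 90 min, supernatant protein was measured by TMTpro 16plex LC-MS/MS with channel sums equalised.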

Tubastatin A = compound: CN1CCc2c(c3ccccc3n2Cc2ccc(C(=O)NO)cc2)C1 [Tubastatin A]
In short: as §1

[1] = compound: CNC(=O)C1=CC=CC=C1NC2=NC(=NC=C2Cl)NC3=C(C=C(C=C3)N4CCOCC4)OC
In short: as §1

[2] = compound: CNc1nc(-c2ccc3c(N)n[nH]c3c2)cc(N2C[C@@H](C(=O)NC3CCCCC3)CC[C@H]2C)n1
In short: as §1

encorafenib = compound: COC(=O)N[C@@H](C)CNc1nccc(-c2cn(C(C)C)nc2-c2cc(Cl)cc(NS(C)(=O)=O)c2F)n1 [encorafenib]
In short: as §1

[3] = compound: COC(=O)[C@H](CCSC)NC(=O)C1=C(C=C(C=C1)NC[C@H](CS)N)C2=CC=CC=C2
In short: as §1

alisertib = compound: COc1cc(Nc2ncc3c(n2)-c2ccc(Cl)cc2C(c2c(F)cccc2OC)=NC3)ccc1C(=O)O [alisertib]
In short: as §1

[4] = compound: COc1cc2nc(-c3cc(F)ccc3O)nc(N[C@@H]3CNC[C@H]3C(C)(C)O)c2cc1OC
In short: as §1

gefitinib = compound: COc1cc2ncnc(Nc3ccc(F)c(Cl)c3)c2cc1OCCCN1CCOCC1 [gefitinib]
In short: as §1

lapatinib = compound: CS(=O)(=O)CCNCc1ccc(-c2ccc3ncnc(Nc4ccc(OCc5cccc(F)c5)c(Cl)c4)c3c2)o1 [lapatinib]
In short: as §1

pictilisib = compound: CS(=O)(=O)N1CCN(Cc2cc3nc(-c4cccc5[nH]ncc45)nc(N4CCOCC4)c3s2)CC1 [pictilisib]
In short: as §1

crizotinib = compound: C[C@@H](Oc1cc(-c2cnn(C3CCNCC3)c2)cnc1N)c1c(Cl)ccc(F)c1Cl [crizotinib]
In short: as §1

[5] = compound: C[C@H](C1=CC=C(C=C1)C(=O)NC2=C3C=CNC3=NC=C2)N
In short: as §1

duvelisib = compound: C[C@H](Nc1ncnc2nc[nH]c12)c1cc2cccc(Cl)c2c(=O)n1-c1ccccc1 [duvelisib]
In short: as §1

gandotinib = compound: Cc1cc(Nc2cc(CN3CCOCC3)c3nc(C)c(Cc4ccc(Cl)cc4F)n3n2)n[nH]1 [gandotinib]
In short: as §1

tozasertib = compound: Cc1cc(Nc2cc(N3CCN(C)CC3)nc(Sc3ccc(NC(=O)C4CC4)cc3)n2)n[nH]1 [tozasertib]
In short: as §1

doramapimod = compound: Cc1ccc(-n2nc(C(C)(C)C)cc2NC(=O)Nc2ccc(OCCN3CCOCC3)c3ccccc23)cc1 [doramapimod]
In short: as §1

bafetinib = compound: Cc1ccc(NC(=O)c2ccc(CN3CC[C@H](N(C)C)C3)c(C(F)(F)F)c2)cc1Nc1nccc(-c2cncnc2)n1 [bafetinib]
In short: as §1

[6] = compound: Cc1cccc(CC(=O)N2CCc3c2ccc(-c2cn(C)c4ncnc(N)c24)c3F)n1
In short: as §1

defactinib = compound: CNC(=O)c1ccc(Nc2ncc(C(F)(F)F)c(NCc3nccnc3N(C)S(C)(=O)=O)n2)cc1 [defactinib]
In short: as §1

Target | log2 fold change (alvocidib) | log2 fold change (Tubastatin A) | log2 fold change [1] | log2 fold change [2] | log2 fold change (encorafenib) | log2 fold change [3] | log2 fold change (alisertib) | log2 fold change [4] | log2 fold change (gefitinib) | log2 fold change (lapatinib) | log2 fold change (pictilisib) | log2 fold change (crizotinib) | log2 fold change [5] | log2 fold change (duvelisib) | log2 fold change (gandotinib) | log2 fold change (tozasertib) | log2 fold change (doramapimod) | log2 fold change (bafetinib) | log2 fold change [6] | log2 fold change (defactinib)
EPS8L2 (UniProt Q9H6S3) | inactive: -0.009 | inactive: 0.078 | inactive: -0.016 | inactive: 0.031 | inactive: 0.096 | inactive: -0.037 | inactive: 0.01 | inactive: -0.036 | inactive: -0.149 | inactive: 0.044 | inactive: -0.03 | inactive: -0.012 | inactive: -0.068 | inactive: -0.086 | inactive: 0.061 | inactive: -0.258 | inactive: -0.046 | inactive: -0.101 | inactive: 0.207 | 
EIF2S3 (UniProt P41091) | inactive: 0 | inactive: 0.032 | inactive: 0.001 | inactive: 0.03 | inactive: -0.013 | inactive: -0.013 | inactive: 0.014 | inactive: -0.009 | inactive: -0.014 | inactive: -0.03 | inactive: 0.009 | inactive: 0.021 | inactive: 0.007 | inactive: -0.022 | inactive: 0.025 | inactive: -0.011 | inactive: -0.018 | inactive: 0.035 | inactive: -0.04 | inactive: -0.054
EIF3F (UniProt O00303) | inactive: 0.01 | inactive: -0.031 | inactive: 0.028 | inactive: -0.022 | inactive: 0.017 | inactive: 0.135 | inactive: 0.002 | inactive: 0.019 | inactive: -0.084 | inactive: 0.004 | inactive: -0.018 | inactive: 0.005 | inactive: 0.141 | inactive: -0.022 | inactive: -0.065 | inactive: 0.021 | inactive: 0.015 | inactive: -0.038 | inactive: -0.014 | inactive: 0.025
EPS8L1 (UniProt Q8TE68) | inactive: 0.009 | inactive: -0.26 |  | inactive: -0.041 | inactive: 0.02 | inactive: -0.055 |  |  |  |  | inactive: -0.119 | inactive: -0.04 | inactive: -0.001 | inactive: 0.076 | inactive: 0.041 | inactive: 0.133 | inactive: 0.22 | inactive: -0.006 | inactive: 0.162 | inactive: -0.028
EIF2AK3 (UniProt Q9NZJ5) | inactive: 0.281 | inactive: -0.369 | inactive: 0.28 | inactive: 0.104 |  |  | inactive: -0.128 | inactive: -0.197 | inactive: 0.001 | inactive: 0.3 |  |  | inactive: -0.051 | inactive: -0.122 | inactive: -0.212 |  |  |  | active: 1.48 | 
ELAC1 (UniProt Q9H777) | inactive: -0.087 |  |  |  | inactive: 0.104 | inactive: -0.037 |  | inactive: 0.136 |  | inactive: 0.084 | inactive: -0.223 |  | inactive: -0.104 |  | inactive: 0.003 | inactive: 0.218 |  | inactive: 0.014 | inactive: 0.064 | inactive: -0.058
ERG28 (UniProt Q9UKR5) | inactive: 0.304 |  |  | inactive: -0.037 | inactive: 0.055 | inactive: -0.062 |  | inactive: -0.024 |  | inactive: 0.008 | inactive: 0.049 |  | active: 0.593 | inactive: 0.014 | inactive: -0.349 | inactive: -0.11 |  | inactive: 0.041 | inactive: -0.392 | 
ERAP2 (UniProt Q6P179) |  | inactive: 0.048 | inactive: 0.024 |  | inactive: 0.032 | inactive: 0.117 |  | inactive: 0.038 |  | inactive: -0.084 | inactive: -0.125 | inactive: -0.15 |  |  |  | inactive: 0.038 | inactive: -0.031 | inactive: -0.314 |  | 
EIF4E3 (UniProt Q8N5X7) | inactive: -0.011 |  | inactive: -0.288 |  | inactive: 0.035 | inactive: 0.032 | inactive: 0.07 |  | inactive: 0.052 |  |  | inactive: 0.107 | inactive: -0.414 |  | inactive: 0.184 | inactive: 0.07 | inactive: -0.086 |  | inactive: -0.118 | inactive: -0.057
EPB41L5 isoform 2 (UniProt Q9HCM4) |  |  |  |  |  |  |  | inactive: 0.089 |  | inactive: -0.17 |  |  |  |  |  |  |  |  |  | 
EIF4G3, A0A0A0MSA7 |  | inactive: 0.078 |  | inactive: 0.116 |  |  |  |  |  |  |  |  |  | inactive: 0.007 |  |  |  |  |  | 
EIF4A1 (UniProt J3KS25) |  | inactive: -0.029 |  |  | inactive: -0.097 | inactive: 0.073 |  |  |  |  |  |  |  |  |  | inactive: -0.12 |  |  |  | inactive: -0.042
EIF2B4 (UniProt Q9UI10) |  | inactive: 0.006 | inactive: -0.004 | inactive: -0.058 | inactive: 0.114 | inactive: -0.1 | inactive: -0.039 | inactive: -0.008 | inactive: 0.074 | inactive: -0.003 | inactive: 0.038 | inactive: -0.057 |  | inactive: -0.032 |  | active: -0.314 | inactive: -0.019 | inactive: -0.04 |  | inactive: 0.03

Two records picked at random from those above, as already listed:
Target | log2 fold change (alvocidib) | log2 fold change (Tubastatin A) | log2 fold change [1] | log2 fold change [2] | log2 fold change (encorafenib) | log2 fold change [3] | log2 fold change (alisertib) | log2 fold change [4] | log2 fold change (gefitinib) | log2 fold change (lapatinib) | log2 fold change (pictilisib) | log2 fold change (crizotinib) | log2 fold change [5] | log2 fold change (duvelisib) | log2 fold change (gandotinib) | log2 fold change (tozasertib) | log2 fold change (doramapimod) | log2 fold change (bafetinib) | log2 fold change [6] | log2 fold change (defactinib)
EIF4A1 (UniProt J3KS25) |  | inactive: -0.029 |  |  | inactive: -0.097 | inactive: 0.073 |  |  |  |  |  |  |  |  |  | inactive: -0.12 |  |  |  | inactive: -0.042
EIF3F (UniProt O00303) | inactive: 0.01 | inactive: -0.031 | inactive: 0.028 | inactive: -0.022 | inactive: 0.017 | inactive: 0.135 | inactive: 0.002 | inactive: 0.019 | inactive: -0.084 | inactive: 0.004 | inactive: -0.018 | inactive: 0.005 | inactive: 0.141 | inactive: -0.022 | inactive: -0.065 | inactive: 0.021 | inactive: 0.015 | inactive: -0.038 | inactive: -0.014 | inactive: 0.025
